Laboratory results as given in paper PMC4282331.
Results are given in words; binding and its absence hold for the method and conditions named. Some results given as binding are weak or reduced against the parent protein; the word gives no strength. Where a sequence is shown, tags or fusion partners need not be part of it.

Target: T1, GST-tagged Apm4 mu homology domain (amino acids 179-491) (S. cerevisiae) (UniProt Q99186)
T1 sequence: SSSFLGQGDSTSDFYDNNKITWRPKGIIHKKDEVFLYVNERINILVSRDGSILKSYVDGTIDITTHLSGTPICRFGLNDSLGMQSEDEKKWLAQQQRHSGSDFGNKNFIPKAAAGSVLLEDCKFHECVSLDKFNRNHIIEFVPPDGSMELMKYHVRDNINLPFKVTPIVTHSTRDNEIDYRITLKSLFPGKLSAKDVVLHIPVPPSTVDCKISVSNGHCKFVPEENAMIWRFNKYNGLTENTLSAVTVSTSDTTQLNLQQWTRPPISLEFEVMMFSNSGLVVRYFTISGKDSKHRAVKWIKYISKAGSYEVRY
Test: pull-down; GST-tagged Apm4, Apm4 mutant or GST only bound to glutathione sepharose beads, blocked overnight; 50 mM NaCl, 20 mM sodium phosphate pH 7.5, 1 mM MgCl2, 5% BSA, 10% glycerol; recombinant His-Mid2 tail incubated 30 min, 3 washes; Mid2 detected by anti-His western blot; two concentrations of Mid2 (Figure 5A), 20 µM Mid2 (Figure S3); both purified

B1: His-tagged cytoplasmic tail of Mid2 (aa 251-376) (domain or fragment, UniProt P36027 251-376)
chain: QSSRTDFIDSDGKVVTAYRANKFTKWWYMLLGKKVSDEYHSDSPLGGSASSAGGLDLDEADDVMEQSSLFDVRIRDSDSVLPNANTADHNNTNSGGEPINSSVASNDIIEEKFYDEQGNELSPRNY
- binding: binds weakly
